Data taken from article doi:10.1101/2025.09.05.674581.
No constants are given. Whether binding was seen depends on the method and setting. Binding seen in cells or lysates may run through a third protein. Here binding means that the protein was enriched with, or labelled near, the bait; the list need not be complete.

The chains behind the UniProt entries cited, without tags or fusion partners. Where a name states a change or a piece, a line headed by the entry shows the natural chain unless it says otherwise.
UniProt Q61701, whole entry: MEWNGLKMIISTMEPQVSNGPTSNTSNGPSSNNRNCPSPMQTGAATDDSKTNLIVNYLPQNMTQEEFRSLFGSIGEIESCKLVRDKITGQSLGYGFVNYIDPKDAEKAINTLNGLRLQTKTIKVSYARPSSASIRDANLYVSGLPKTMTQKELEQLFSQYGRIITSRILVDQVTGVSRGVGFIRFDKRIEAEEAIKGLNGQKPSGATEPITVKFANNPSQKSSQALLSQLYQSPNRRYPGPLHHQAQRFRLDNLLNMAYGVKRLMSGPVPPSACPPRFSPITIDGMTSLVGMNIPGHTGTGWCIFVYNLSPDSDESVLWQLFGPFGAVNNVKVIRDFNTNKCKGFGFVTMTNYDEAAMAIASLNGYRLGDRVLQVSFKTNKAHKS

Molecular target: FLAG-HA-tagged HuD (UniProt Q61701)
Assay: affinity purification with mass spectrometry

Row | Molecule | binding
1 | SYNCRIP (protein, UniProt Q7TMK9 1-623) MATEHVNGNGTEEPMDTTSAVIHSENFQTLLDAGLPQKVAEKLDEIYVAGLVAHSDLDERAIEALKEFNEDGALAVLQQFKDSDLSHVQNKSAFLCGVMKTYRQREKQGTKVADSSKGPDEAKIKALLERTGYTLDVTTGQRKYGGPPPDSVYSGQQPSVGTEIFVGKIPRDLFEDELVPLFEKAGPIWDLRLMMDPLTGLNRGYAFVTFCTKEAAQEAVKLYNNHEIRSGKHIGVCISVANNRLFVGSIPKSKTKEQILEEFSKVTEGLTDVILYHQPDDKKKNRGFCFLEYEDHKTAAQARRRLMSGKVKVWGNVGTVEWADPIEDPDPEVMAKVKVLFVRNLANTVTEEILEKSFSQFGKLERVKKLKDYAFIHFDERDGAVKAMEEMNGKDLEGENIEIVFAKPPDQKRKERKAQRQAAKNQMYDDYYYYGPPHMPPPTRGRGRGGRGGYGYPPDYYGYEDYYDYYGYDYHNYRGGYEDPYYGYEDFQVGARGRGGRGARGAAPSRGRGAAPPRGRAGYSQRGGPGSARGVRGARGGAQQQRGRGVRGARGGRGGNVGGKRKADGYNQPDTKRRQTNNQNWGSQPIAQQPLQGGDHSGNYGYKSENQEFYQDTFGQQWK | binds

Molecular target: FLAG-HA-tagged HuD (UniProt Q61701)
Assay: affinity purification with mass spectrometry
Remark: another data set of the same source

Row | Molecule | binding
2 | IGF2BP3 (from UniProt Q9CPN8 1-579) | binds
3 | MATR3 (from UniProt Q8K310 1-846) | binds
4 | PCBP2 (from UniProt Q61990 1-362) | binds
5 | TDP-43 (from UniProt Q921F2 1-414) | binds
6 | hnRNPC (from UniProt Q9Z204 1-313) | binds
